Structures are written as SMILES. The list shows a part of the results. Further columns of the screen follow, without active or inactive calls. Compounds called inactive in the main read-out are mostly missing here. Potencies come from curve fits of mixed quality, noted in brackets.

This assay in a line: qHTS Assay for Lipid Storage Modulators in Drosophila S3 Cells.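 For cell number change: cells counted by Cell Tracker Red CMTPX staining in the red channel.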 The note with it: BODIPY lipid droplet fluorescence, 18-24 h; for cell number change: measured here: cell count max response, cells fed with added oleic acid. The method in brief:
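Drosophila S3 cells loaded with oleic acid (400 uM, as added) and compounds at several concentrations; lipid droplets imaged by 488-nm laser-scanning cytometry, 500–530 nm intensity and object ratio to cell channel. Percent activity normalized to 20 uM Triacsin C.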
On the technique in general: Quantitative high-throughput screening tests each substance at several concentrations.

The mark [1] stands for this setting: measured here: cell number channel AC50, cells fed with added oleic acid.
Where [2] appears, read: measured here: lipid fluorescence (Fed channel) AC50, cells fed with added oleic acid.

For the compound `COc1ccc(-c2cn(CCC(=O)O)c(C)n2)cc1`, the cell number change was 31.2%. Moreover, the AC50 (commonly the midpoint of the concentration-response curve, whichever way the signal moves) under setting [1] is 0.326 µM [rising, full curve, poor fit].
On to `COc1cc(OC)c(OC)cc1CNc1nnnn1C`, for which the cell number change amounted to 6.83%. Under setting [2], the concentration at half-maximal activity (AC50) is 0.184 µM [rising, full curve, poor fit].
Turning to `Cc1ccccc1-c1nc(CS(=O)(=O)CC(=O)N(C)C2CCCCC2)c(C)o1`, the cell number change turned out to be 18.1%. The AC50 under setting [1] was 3.66 µM [rising, single point]. Besides, the concentration at half-maximal activity (AC50) under setting [2] was 3.26 µM [rising, full curve].
Regarding `COc1ccc(CCNC(=O)CSC(=O)c2ccccc2)cc1OC`, the cell number change turned out to be 29.7%. Besides, the AC50 under setting [2] was 5.8 µM [falling, full curve, poor fit].
Regarding `O=C(NCCCn1ccnc1)C1c2ccccc2Oc2ccccc21`, the cell number change was 37.9%. Besides, under setting [1], the AC50 was 1.84 µM [rising, full curve]. The AC50 under setting [2] was 1.84 µM [rising, full curve].
Consider `O=C(c1ccc2c(c1)OCO2)N1CCN=C1SCc1cccnc1`, for which the concentration at half-maximal activity (AC50) under setting [1] is 3.26 µM [rising, single point] and the AC50 under setting [2] was 4.11 µM [rising, single point].
As to `Cc1cc(-c2nc3cccnc3s2)ccc1NS(=O)(=O)c1ccc2c(c1)OCCO2`, the cell number change stood at 6.78%. Under setting [1], the AC50 is 0.116 µM [rising, full curve].
As to `COc1cc(C(=O)N2CCN(c3ccccc3)CC2)c([N+](=O)[O-])cc1OC`, the cell number change is -4.92%. Under setting [2], the AC50 was 29.1 µM [rising, single point].
As to `CC(C)c1ccccc1NS(=O)(=O)c1cccs1`, the cell number change was -21.1%.
Take `CCn1c(C(=O)NC(C)c2ccc3c(c2)OCCO3)cc2sccc21` (configuration not stated): the cell number change is -8.96%. In addition, the AC50 under setting [2] was 16.4 µM [falling, single point].
`O=c1c(C(c2ccc(F)cc2)c2c(O)nc3n(c2=O)CCS3)c(O)nc2n1CCS2`: the cell number change worked out at 40.8%. The AC50 under setting [1] was 29.1 µM [rising, single point].
As for `N=C1C(c2ccccc2)=C(O)CN1c1ccccc1N1CCOCC1`, the cell number change was -4.45%.
Take `CC1CCN(CC(O)COCCC23CC4CC(CC(C4)C2)C3)CC1` (configuration not stated): the cell number change is -10.2%. In addition, the concentration at half-maximal activity (AC50) under setting [2] is 6.51 µM [falling, single point].
Take `CC(C)NS(=O)(=O)c1ccc2c(c1)NCC2`: the cell number change worked out at 50%. Also, the half-maximal activity concentration (AC50) under setting [1] is 18.4 µM [rising, single point]. Moreover, the AC50 under setting [2] is 0.231 µM [falling, full curve, poor fit].
As to `Cc1c(C(=O)NCCC2=CCCCC2)sc2ncnc(N3CCCCC3C)c12` (configuration not stated), the cell number change was determined as 2.69%.
`CS(=O)(=O)N(CC(=O)Nc1ccccc1C(=O)N1CCOCC1)c1ccc2c(c1)OCO2`: the cell number change was 5.7%. Further, under setting [2], the AC50 was 3.66 µM [falling, full curve].
For `Cc1ccc(C)c(OCCC(=O)N2CCN(S(=O)(=O)c3ccc([N+](=O)[O-])cc3)CC2)c1`, the cell number change was -15.4%. In addition, under setting [2], the AC50 was 29.1 µM [falling, single point].
`CC(=O)Nc1ccc(NC(=O)CSc2ncc(C(=O)Nc3ccc(Cl)cc3)c(=O)n2C)cc1`: the cell number change is 60%. The AC50 under setting [1] is 2.59 µM [rising, partial curve].
Take `CN(CC(=O)NCCC1=CCCCC1)S(=O)(=O)c1ccc2c(c1)c(=O)n(C)c(=O)n2C`: the cell number change was -15%. Besides, under setting [2], the half-maximal activity concentration (AC50) is 1.03 µM [falling, full curve].
In the case of `CCN(CC)C(=O)C1CC(c2ccc(OC)cc2)=NO1` (configuration not stated), the concentration at half-maximal activity (AC50) is 6.51 µM [falling, single point] under setting [1] and 0.58 µM [rising, single point] under setting [2].
For the compound `CC(C)(C)C(=O)CSc1ncnc2c1cnn2-c1ccccc1`, the cell number change is 18.5%. Besides, the AC50 under setting [2] is 2.91 µM [rising, full curve, poor fit].
For the compound `O=C(CSc1nnc(-c2ccc(O)cc2)o1)NNC(=O)c1ccncc1`, the cell number change worked out at 16.7%. For the same compound, the concentration at half-maximal activity (AC50) under setting [1] is 0.00517 µM [rising, full curve, poor fit].
`COc1cccc(NC(=O)C2C3CCC4C(CCC32)C4(Cl)Cl)c1` (configuration not stated): under setting [2], the AC50 is 0.651 µM [falling, single point].
With `CC1CCCN(C(c2ccccc2)c2sc3ncnn3c2O)C1` (configuration not stated), the cell number change was -6.76%. Further, the AC50 under setting [2] was 0.00461 µM [falling, full curve, poor fit].
Regarding `CC(C(=O)N1CCOCC1)c1ccc([N+](=O)[O-])cc1` (configuration not stated), the cell number change turned out to be 5.46%. Besides, the AC50 under setting [1] is 1.03 µM [falling, full curve].
For the compound `COc1cccc(NC(=S)NNC(=O)Cn2nc(C(F)(F)F)cc2C)c1`, the half-maximal activity concentration (AC50) under setting [2] was 20.6 µM [rising, single point].
In the case of `O=C1C2C3C=CC(C3)C2C(=O)N1c1ccc(S(=O)(=O)Nc2nccs2)cc1` (configuration not stated), the cell number change was 10.6%. Also, under setting [2], the AC50 was 6.51 µM [rising, partial curve, poor fit].
On to `CC(NC(=O)/C(=C\c1ccco1)NC(=O)c1ccco1)C(=O)O` (configuration not stated), for which the cell number change turned out to be 5.03%. The half-maximal activity concentration (AC50) under setting [2] is 25.9 µM [rising, single point].
With `CCCC(=O)NCCc1cc2ccc(C)c(C)c2[nH]c1=O`, the AC50 was 4.11 µM [rising, partial curve, poor fit] under setting [1] and 4.11 µM [rising, partial curve, poor fit] under setting [2].
Consider `COc1ccc(Cc2nc3ccc(C(=O)NCC4COCCO4)cc3o2)cc1` (configuration not stated), for which the cell number change is 29.8%.
For `O=C1Nc2cccnc2N(C(=O)CCl)c2ccccc21`, the cell number change is -12.5%.
`CC(C)NC(=O)C1CCCN(c2nnc(-n3cccc3)s2)C1` (configuration not stated): the cell number change is -6.02%.
Take `COc1cccc(/C(O)=C2\C(=O)C(=O)N(c3ccccn3)C2c2cccc(OC)c2OC)c1` (configuration not stated): the AC50 under setting [2] is 0.206 µM [rising, full curve, poor fit].
On to `CC(NC(=S)NNS(=O)(=O)c1cccc([N+](=O)[O-])c1)c1ccccc1` (configuration not stated), for which the cell number change is 8.83%. Under setting [2], the half-maximal activity concentration (AC50) was 10 µM [falling, partial curve].
On to `CC(C)N1CCc2c(sc(NC(=O)c3ccc(C(=O)c4ccccc4)cc3)c2C(N)=O)C1`, for which the cell number change was -32.6%. For the same compound, the half-maximal activity concentration (AC50) under setting [1] is 32.6 µM [falling, single point].
In the case of `COc1cc(NC(=O)NC2Cc3ccccc3C2)cc(OC)c1`, the cell number change worked out at 13.9%. Also, the AC50 under setting [1] is 2.31 µM [rising, partial curve, poor fit]. In addition, the AC50 under setting [2] was 29.1 µM [falling, partial curve].
For `CS/C(=N\S(=O)(=O)c1cccs1)Nc1ccc(N2CCOCC2)cc1`, the cell number change is -31.5%. Moreover, the AC50 under setting [1] is 4.61 µM [falling, full curve]. Under setting [2], the AC50 is 6.51 µM [falling, full curve, poor fit].
For the compound `CC(C(=O)N1CCc2ccccc21)n1cnc2c1c(=O)n(C)c(=O)n2C` (configuration not stated), the cell number change was -32.5%. For the same compound, under setting [1], the half-maximal activity concentration (AC50) was 29.1 µM [falling, single point].

The record behind these values is PubChem BioAssay AID2685 (National Center for Advancing Translational Sciences (NCATS), 2010).
